Results are given in words; binding and its absence hold for the method and conditions named.

Assay [1] addresses SRCRD11 (1371-1489) of DMBT1 released from Trx-His6-TEV-SRCRD by TEV protease (human) (UniProt Q9UGM3). Briefly: SEC; Superdex 200 10/300 GL, 20 mM Tris-HCl (pH 8.0), 200 mM NaCl; refolded SRCRD loaded; both purified.
Assay [2] has as its target SRCRD11 (1371-1489) of the deleted in malignant brain tumors 1 (DMBT1) protein, untagged construct (SRCRD only) (human) (UniProt Q9UGM3). The assay is described as above.

As for “SRCRD11 (1371-1489) of DMBT1 released from Trx-His6-TEV-SRCRD by TEV protease (from UniProt Q9UGM3 1371-1489) (domain or fragment)”, in assay [1], the binding entry is on record as “no binding”. On to “SRCRD11 (1371-1489) of the deleted in malignant brain tumors 1 (DMBT1) protein, untagged construct (SRCRD only) (from UniProt Q9UGM3 1371-1489) (domain or fragment)”, for which the binding result in assay [2] is “no binding”.
